In publication PMC12375581:
No constants are given. Whether binding was seen depends on the method and setting. In cells and extracts the contact can be indirect. Some results given as binding are weak or reduced against the parent protein; the word gives no strength.

Amino acid sequences for entries named in this document (tags omitted). Residues count along the entry.
UniProt Q9UPY5: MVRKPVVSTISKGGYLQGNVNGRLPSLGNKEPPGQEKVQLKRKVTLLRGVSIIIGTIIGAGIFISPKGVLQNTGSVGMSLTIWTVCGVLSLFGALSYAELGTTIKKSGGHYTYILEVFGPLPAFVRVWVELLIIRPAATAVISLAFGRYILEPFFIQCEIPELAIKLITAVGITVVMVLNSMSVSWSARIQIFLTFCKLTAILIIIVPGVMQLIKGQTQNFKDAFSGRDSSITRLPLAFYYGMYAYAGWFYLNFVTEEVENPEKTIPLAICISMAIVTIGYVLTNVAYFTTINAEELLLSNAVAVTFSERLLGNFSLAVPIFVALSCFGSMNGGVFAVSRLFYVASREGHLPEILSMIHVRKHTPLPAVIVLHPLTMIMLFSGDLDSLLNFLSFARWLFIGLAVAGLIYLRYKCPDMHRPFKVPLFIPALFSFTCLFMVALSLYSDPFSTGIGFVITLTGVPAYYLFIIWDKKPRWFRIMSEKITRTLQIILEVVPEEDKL
UniProt P02671, residues 36-866: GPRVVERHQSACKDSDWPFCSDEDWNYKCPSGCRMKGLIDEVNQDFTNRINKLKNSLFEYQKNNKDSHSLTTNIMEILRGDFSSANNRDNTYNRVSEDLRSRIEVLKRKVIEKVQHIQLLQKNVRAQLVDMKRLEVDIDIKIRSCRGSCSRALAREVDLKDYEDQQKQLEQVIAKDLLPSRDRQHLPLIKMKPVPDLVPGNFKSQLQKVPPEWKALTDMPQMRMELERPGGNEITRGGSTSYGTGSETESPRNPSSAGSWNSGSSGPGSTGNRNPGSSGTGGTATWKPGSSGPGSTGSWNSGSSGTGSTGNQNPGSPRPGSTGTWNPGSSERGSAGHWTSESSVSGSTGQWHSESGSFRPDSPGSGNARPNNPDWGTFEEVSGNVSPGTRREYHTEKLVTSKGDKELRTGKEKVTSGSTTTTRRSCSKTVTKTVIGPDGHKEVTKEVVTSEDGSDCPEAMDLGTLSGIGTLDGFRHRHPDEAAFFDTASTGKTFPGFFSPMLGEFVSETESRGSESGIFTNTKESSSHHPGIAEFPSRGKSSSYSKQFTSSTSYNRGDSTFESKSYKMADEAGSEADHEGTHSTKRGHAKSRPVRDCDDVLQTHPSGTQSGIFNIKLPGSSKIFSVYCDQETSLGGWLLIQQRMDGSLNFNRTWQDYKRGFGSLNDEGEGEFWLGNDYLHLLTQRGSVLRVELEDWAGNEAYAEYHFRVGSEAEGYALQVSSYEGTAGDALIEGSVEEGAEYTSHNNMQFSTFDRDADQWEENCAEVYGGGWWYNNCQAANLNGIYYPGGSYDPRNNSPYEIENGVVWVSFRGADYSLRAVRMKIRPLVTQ

Biological target: Solute carrier family 7 member 11 (SLC7A11/xCT) (human (endogenous in A549)) (UniProt Q9UPY5)
Assay: co-IP; endogenous proteins in A549 whole-cell lysates; anti-FGA or anti-xCT (mouse monoclonal) antibody 1h, then magnetic Protein A/G beads 1h, four washes with lysis buffer; normal mouse IgG as negative control; reciprocal

binding: binds
Substance: fibrinogen alpha chain (FGA) (from UniProt P02671 36-866)
